The target of experiment [1] is ZTF-11::GFP (Zinc-finger Transcription Factor-11, endogenous GFP knock-in) (C. elegans (endogenous, tagged locus)) (UniProt O02274). The experiment in a line: co-IP; single molecule pull-down (SiMPull), imaging-based co-immunoprecipitation: worm lysates (7 mg/ml; 50 mM HEPES pH 7.7, 50 mM KCl, 2 mM MgCl2, 250 mM sucrose, 1 mM EDTA, then 100 mM NaCl and 1% Triton X-100) on quartz slides coated with or without biotinylated anti-GFP antibody to hold ZTF-11::GFP; mCherry spots counted by TIRF microscopy.

By UniProt entry, the sequences of proteins in these tests, tags left out.
UniProt O02274: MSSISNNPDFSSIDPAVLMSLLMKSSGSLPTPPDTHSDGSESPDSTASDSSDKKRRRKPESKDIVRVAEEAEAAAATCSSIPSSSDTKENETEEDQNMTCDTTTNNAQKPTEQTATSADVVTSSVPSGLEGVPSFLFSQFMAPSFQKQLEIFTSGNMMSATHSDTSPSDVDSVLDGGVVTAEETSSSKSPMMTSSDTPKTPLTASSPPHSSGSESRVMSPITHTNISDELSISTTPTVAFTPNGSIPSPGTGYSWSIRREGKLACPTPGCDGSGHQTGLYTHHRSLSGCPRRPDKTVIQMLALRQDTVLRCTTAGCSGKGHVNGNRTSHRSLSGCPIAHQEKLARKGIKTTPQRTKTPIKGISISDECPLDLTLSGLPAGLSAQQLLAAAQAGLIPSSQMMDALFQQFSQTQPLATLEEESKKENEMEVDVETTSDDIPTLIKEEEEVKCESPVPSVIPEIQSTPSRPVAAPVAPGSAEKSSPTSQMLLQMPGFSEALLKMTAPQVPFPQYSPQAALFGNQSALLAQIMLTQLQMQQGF
UniProt A5JYW9: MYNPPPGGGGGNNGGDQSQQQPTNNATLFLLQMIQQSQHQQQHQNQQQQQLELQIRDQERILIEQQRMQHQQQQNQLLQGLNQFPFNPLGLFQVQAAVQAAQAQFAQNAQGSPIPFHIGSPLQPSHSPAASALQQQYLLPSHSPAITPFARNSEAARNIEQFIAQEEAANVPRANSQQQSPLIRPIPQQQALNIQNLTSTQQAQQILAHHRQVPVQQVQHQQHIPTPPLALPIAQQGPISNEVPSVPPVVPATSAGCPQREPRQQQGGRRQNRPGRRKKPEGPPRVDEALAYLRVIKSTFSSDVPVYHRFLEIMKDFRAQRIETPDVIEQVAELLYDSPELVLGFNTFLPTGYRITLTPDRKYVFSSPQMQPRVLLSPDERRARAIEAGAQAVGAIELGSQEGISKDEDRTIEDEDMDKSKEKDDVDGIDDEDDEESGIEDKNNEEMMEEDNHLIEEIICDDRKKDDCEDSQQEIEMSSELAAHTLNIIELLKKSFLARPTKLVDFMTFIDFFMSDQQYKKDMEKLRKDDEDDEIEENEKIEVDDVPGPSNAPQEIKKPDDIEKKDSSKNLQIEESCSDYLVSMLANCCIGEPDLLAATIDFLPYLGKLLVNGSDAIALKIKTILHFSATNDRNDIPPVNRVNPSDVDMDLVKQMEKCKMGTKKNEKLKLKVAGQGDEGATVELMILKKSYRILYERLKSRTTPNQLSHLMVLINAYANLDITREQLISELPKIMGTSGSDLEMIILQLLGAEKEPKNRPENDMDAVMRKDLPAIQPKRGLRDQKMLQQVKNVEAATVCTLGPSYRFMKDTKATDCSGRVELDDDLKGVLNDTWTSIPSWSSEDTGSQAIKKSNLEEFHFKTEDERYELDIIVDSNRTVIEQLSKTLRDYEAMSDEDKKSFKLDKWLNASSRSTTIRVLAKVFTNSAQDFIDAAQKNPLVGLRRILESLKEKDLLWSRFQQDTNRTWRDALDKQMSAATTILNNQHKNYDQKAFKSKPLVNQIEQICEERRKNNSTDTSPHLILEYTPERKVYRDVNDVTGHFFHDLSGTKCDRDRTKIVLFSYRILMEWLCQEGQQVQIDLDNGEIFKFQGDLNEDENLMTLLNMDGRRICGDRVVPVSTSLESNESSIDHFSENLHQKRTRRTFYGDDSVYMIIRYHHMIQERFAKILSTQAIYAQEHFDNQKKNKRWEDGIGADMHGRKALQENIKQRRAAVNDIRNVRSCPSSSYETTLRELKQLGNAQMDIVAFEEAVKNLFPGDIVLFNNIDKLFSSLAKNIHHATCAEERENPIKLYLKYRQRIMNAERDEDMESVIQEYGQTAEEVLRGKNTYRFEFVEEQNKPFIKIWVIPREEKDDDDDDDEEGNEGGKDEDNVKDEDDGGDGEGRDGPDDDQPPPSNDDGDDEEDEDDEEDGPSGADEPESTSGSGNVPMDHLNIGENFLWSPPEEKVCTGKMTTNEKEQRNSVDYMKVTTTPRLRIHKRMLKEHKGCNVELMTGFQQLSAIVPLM

For experiment [2] the target is unchanged. The experiment is described as above. This is another data set of the same source.

Like-named read-outs stand apart in the source and are kept apart here. No constants are given. Whether binding was seen depends on the method and setting. Binding seen in cells or lysates may run through a third protein. Some entries that bind do so weakly or less than the wild type.

“SIN-3::mCherry (endogenous knock-in) (from UniProt A5JYW9 1-1507)”: in experiment [1], the binding result is given as “binds weakly”.

B1: LIN-52::mCherry (endogenous knock-in) (protein, UniProt Q10120 1-161)
chain: MSRPLGFIGYEFGDDEMFVQQMIEKKSNAEQAKMLEQQKKMLECTETMPEESEPVPMKCLDFEEAFQSESVSKGYESPYKNISFLKEDAVTVNTMSHCPADDIAKLIRNIQNSVYTLGIEEARQCRRGKLLNVLKPTGSASPRYLQPTPPKNVAEETTGSQ
For the molecule B1, in experiment [2], the binding entry is on record as “binds”.

B2: mCherry::LIN-9 (endogenous knock-in) (protein, UniProt P30630 1-644)
chain: MSSAVRSPRKKAASDTSDPDRTSSPYSLRETSKVPSRYRNEELYLSPSRSIKRTGSPKKSPAKRLNGGRDSPSVNSLTRNSSLTMLAKAALDYESSSCALEYIFQPKEERRPPRRALALSPPPAPSNDLLAKDLEMIEMHQNLVAGLDDLDNPANMTNEAVEHRDTQSFFNMFSTDQERSAMMKQFKTYKNQTSEDVSTFMRANIKKLYNLLRYKKARQWVMCEFFYSAIDEQIFKEENEFATIIRESFPNLKNWNLTRIEWRSIRKLLGKPRRCSKVFFEEERMYLEEKRMKIRSVYEGSYLNDPSIDLKDLPAKLPRPMVVGNRVFARIRNPYDGIYSGIIDAVIPKGFRIIFDKPDIPPTLVSDTEILLDGKLDLLSIAYFIEQANSKLPSGVRPFVAAVRDSSHPHLVRDVLVSRKIERSGGPLMGPNDERLNGKNAEMVGNFPLKFLVNLVKLTKLIDIKKGLIRQLNELNADAEIQNMTSDKYSKAFQEKYAKTIIDLEHVNQNIDINMNGIQDHHMYFSSNDISTSNMKPEAVRQMCSQQAGRFVEHCNQGLNVENVHALTLIQSLTAVLLQVRTMGTQKISAVDLQSLGDAISEIRTAIHPRNVAFFQDYVEVHMKQFHTIMLESGALAGTVSNRK
For the molecule B2, the binding result in experiment [2] is “binds”.

B3: RBA-1::mCherry (endogenous knock-in) (protein, UniProt P90917 1-412)
chain: MSEAESCEETSKEHRIWKKNVPYLYDTVVTKEVEWPSLSVQWMPDVTKTENSDSSMHRMIHGTHTCGGVQNHLMISKFTITTDTPEFDDAKWDSEREEFGGYGEGSAAKWDTEIKINHPGEVHRARYMPHNPFIIASRGPSDDVYIFDYTKHPSEPKDTKFRPQLRLKGHEGEGYGMSWSNTREGHLLTAGDDGMICHWDINANQTISGQIVPQSKFKGHSSNAEDVSFHALHNFVFGSVGDDRKLNLWDLRQSKPQLTAVGHTAEVNCITFNPFSEYILATGSVDKTVALWDMRNMRKKMYTLKHHNDEIFQVSFSPHYETVLASSGSDDRVIVWDISKIQDPSSSSAASSDSVPPEVIFIHAGHTGKVADFSWNPNRPWTICSSDEFNALQVWEVSNSLVSSEKWETEMI
As to B3, the binding entry in experiment [2] is reported as “binds”.

The record behind these values is publication PMC6684318.
